From article doi:10.1101/2021.05.03.442108
No constants are given. Whether binding was seen depends on the method and setting. In cells and extracts the contact can be indirect. Binding can be weak; no strength is given. Sequences can lack the tags named with a protein.

Biological target: NKS1 (-cYFP) (Arabidopsis thaliana)
Assay: split reporter

Binder	binding
QUA1 (GAUT8) (-nYFP) (protein, UniProt Q9LSG3 1-559) MANHHRLLRGGGSPAIIGGRITLTAFASTIALFLFTLSFFFASDSNDSPDLLLPGVEYSNGVGSRRSMLDIKSDPLKPRLIQIRKQADDHRSLALAYASYARKLKLENSKLVRIFADLSRNYTDLINKPTYRALYDSDGASIEESVLRQFEKEVKERIKMTRQVIAEAKESFDNQLKIQKLKDTIFAVNEQLTNAKKQGAFSSLIAAKSIPKGLHCLAMRLMEERIAHPEKYTDEGKDRPRELEDPNLYHYAIFSDNVIAASVVVNSAVKNAKEPWKHVFHVVTDKMNLGAMQVMFKLKEYKGAHVEVKAVEDYTFLNSSYVPVLKQLESANLQKFYFENKLENATKDTTNMKFRNPKYLSILNHLRFYLPEMYPKLHRILFLDDDVVVQKDLTGLWEIDMDGKVNGAVETCFGSFHRYAQYMNFSHPLIKEKFNPKACAWAYGMNFFDLDAWRREKCTEEYHYWQNLNENRALWKLGTLPPGLITFYSTTKPLDKSWHVLGLGYNPSISMDEIRNAAVVHFNGNMKPWLDIAMNQFRPLWTKHVDYDLEFVQACNFGL	binds
Got1P homolog (-nYFP) (protein, UniProt Q6NMM1 1-140) MASLEMNDLKKIGLGLTGFGVFFTFLGVIFVFDKGLIAMGNILFLAGVTLTIGINPAIQFFTKRQNFKGTISFGLGFLLVVFGWPIFGLLLESYGFLVLFSGFWPTLAVFLQRIPLLGWLLQQPYIRSLLDRYRGRRVPV	no binding
